Out of some 320,000 compounds screened, about 22,000 (6.9%) were called active. The shares of active, inactive and inconclusive entries below differ from those in the screen. Calls follow the shape of the dose curve; as a rule, active = well fitted inhibition curve with a large enough effect; inconclusive = small, poorly fitted or top-dose-only effect, or another doubt; inactive = no such curve, though single readings can be large or run the other way. Where the call is inconclusive, the potency comes from a doubtful curve fit.
Assay: Primary qHTS for delayed death inhibitors of the malarial parasite plastid, 96 hour incubation
Settings: P. falciparum luciferase reporter growth; series mostly up to 28.7 µM
Outline: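 Readout is luminescence from an integrated firefly luciferase in P. falciparum. Red cells, 2% hematocrit and 0.05% parasitemia final, were cultured with compound through two parasite generations (96 hours) at 37 C, 5% CO2.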
Potency is read from the fitted curve at half-maximal effect.

Row | Compound | Potency
1 | COC(=O)c1cc(-c2c(C)oc3cc(OC(C)C)ccc3c2=O)c(C)o1 | inconclusive: 1.47 µM [inhibitor, full curve, poor fit]
2 | O=C(CN1C(=O)c2cccnc2Oc2ccc(Cl)cc21)N1CCCC1 | inconclusive: 1.47 µM [inhibitor, full curve, poor fit]
3 | CC(C)[C@H](NC(=O)OCc1ccccc1)C(=O)OCC(=O)Nc1c(F)cccc1F | inactive
4 | COc1cc(NC(=S)NC(=O)c2ccc(C(C)(C)C)cc2)ccc1NC(=O)c1cccs1 | inconclusive: 4.15 µM [inhibitor, partial curve, poor fit]
5 | O=C(Cc1c(F)cccc1Cl)N1CCN(S(=O)(=O)c2cccs2)CC1 | inactive
6 | O=C(Nc1ccccc1)c1ccccc1OS(=O)(=O)c1ccccc1 | inconclusive: 18.5 µM [inhibitor, single point]
7 | Oc1cccc(Oc2ncc(C(F)(F)F)cc2Cl)c1 | inactive
8 | COC(=O)Nc1ccc(S(=O)(=O)N2CCC(C(=O)NC3CCCCC3)CC2)cc1 | inconclusive: 9.28 µM [inhibitor, single point]
9 | O=C(OCC(=O)N1CCCCCC1)c1n[nH]c(=O)c2ccccc12 | inactive
10 | CC(NC(=O)CNC(=O)c1cccc(Cl)c1)c1ccccc1 (stereo unspecified) | inconclusive: 0.0029 µM [inhibitor, full curve, poor fit]
11 | COc1ccc(CN2C(=O)CSC2c2ccccn2)cc1 (stereo unspecified) | inconclusive: 0.522 µM [inhibitor, full curve, poor fit]
12 | CCCCCN(C(=O)CCC(=O)OCC(=O)Nc1cccc(CC)c1)c1c(N)n(CCCC)c(=O)[nH]c1=O | inactive
13 | COc1cc(-c2nc3ccccc3c(=O)n2N)cc(OC)c1OC | inconclusive: 2.62 µM [inhibitor, single point]
14 | O=C1c2ccccc2C(=O)N1CC1c2ccccc2CCN1S(=O)(=O)c1cnc[nH]1 (stereo unspecified) | inconclusive: 14.7 µM [inhibitor, partial curve]
15 | COc1ccc(C2Nc3ccccc3C(=O)N2c2ccc(C)cc2)cc1Cn1nnc2ccccc21 (stereo unspecified) | inconclusive: 9.28 µM [inhibitor, partial curve, poor fit]
16 | CCOC(=O)N1CCC(N2Cc3cccc(C(=O)N4CCN(C5CCCCC5)CC4)c3C2=O)CC1 | inconclusive: 18.5 µM [inhibitor, single point]
17 | CCOc1ccc(OCC)c(-c2c(=O)n(OCc3ccccc3C(=O)OC)c3ccccc3[n+]2[O-])c1 | inconclusive: 10.4 µM [inhibitor, single point]
18 | Cc1ccc(NC(=O)C(C)c2ccc([N+](=O)[O-])cc2)cc1Cl (stereo unspecified) | inconclusive: 4.15 µM [inhibitor, full curve]
19 | O=C(NC1=NCCS1)c1ccc(-c2ccc(Cl)cc2)o1 | inconclusive: 5.22 µM [inhibitor, partial curve, poor fit]
20 | Cc1cccc2c1N(C)C(=O)C2=O | inactive
21 | COc1ccc(/C=C/C(=O)OCCC(C)C)cc1 | active: 13.5 µM
22 | Cc1nc(N)ncc1-c1ccc2c(c1)OCO2 | inactive

Row | Compound | Potency
23 | O=c1cc(CN2CCN(Cc3ccccc3)CC2)c2ccc(O)c(O)c2o1 | inconclusive: 18.5 µM [inhibitor, single point]
24 | Cc1cc(Cl)c(OCCCSc2nc(C)cc(=O)[nH]2)c(Br)c1 | inconclusive: 2.33 µM [inhibitor, partial curve, poor fit]
25 | COc1cc(C(=O)OCc2ccc(C)cc2)cc(NC(=O)c2cccs2)c1OC | active: 10.4 µM
26 | CC(C)C1(C)N=C(c2nc3ccccc3cc2C(=O)O)NC1=O (stereo unspecified) | inconclusive: 5.86 µM [inhibitor, partial curve]
27 | Cc1ccc(O)c(C(=O)c2cnc3c(c2)c(-c2ccc(F)cc2)c(C#N)c(=O)n3C)c1 | inconclusive: 1.85 µM [inhibitor, partial curve, poor fit]
28 | Cc1c(Cl)cccc1NC(=O)c1ccc(-n2ccnc2)nc1 | inconclusive: 0.0033 µM [inhibitor, full curve, poor fit]
29 | O=C(N/N=C/c1ccc(O)cc1)c1csc2ccccc12 | inactive
30 | Cc1ccnc(N2CCCC(C(=O)Nc3nnc(C)s3)C2)n1 (stereo unspecified) | inconclusive: 18.5 µM [inhibitor, single point]
31 | CC1=C(C(=O)OCc2ccccc2)C(c2ccccn2)c2c(n(C)c(=O)n(C)c2=O)N1 (stereo unspecified) | inconclusive: 14.7 µM [inhibitor, single point]
32 | Cc1ccc(-c2csc(NC(=O)CCNC(=O)c3ccco3)n2)cc1 | inconclusive: 13.1 µM [inhibitor, partial curve]
33 | Cc1cc(/C=C2\C(=O)NC(=O)N(Cc3ccco3)C2=O)c(C)n1-c1ccc(O)cc1 | inactive
34 | COc1cccc(CNC(=O)CCCC(=O)Nc2cccc([N+](=O)[O-])c2)c1 | inconclusive: 13.1 µM [inhibitor, single point]
35 | CCSc1nnc(NC(=O)C2CC2c2ccccc2)s1 (stereo unspecified) | inconclusive: 2.62 µM [inhibitor, partial curve, poor fit]
36 | CC(C)N1CC=C(c2c[nH]c3ccccc23)CC1 | inconclusive: 13.1 µM [inhibitor, single point]
37 | COc1cc(CO)cc(Br)c1OCC(=O)Nc1cccc2ccccc12 | inconclusive: 3.29 µM [inhibitor, partial curve, poor fit]
38 | O=C(Oc1ccc([N+](=O)[O-])cc1)c1cccnc1 | inconclusive: 18.5 µM [inhibitor, single point]
39 | CCCNC(=O)c1ccccc1NC(=O)COc1ccc(OC)cc1 | inactive
40 | Cc1nc(SCc2ccccc2C#N)n[nH]1 | inconclusive: 20.8 µM [inhibitor, partial curve, poor fit]
41 | CCCS(=O)(=O)Nc1c(OC)ccc2c1c(C(=O)OCC)c(C)n2C | inconclusive: 16.5 µM [inhibitor, single point]
42 | CCOC(=O)/C(=N/Nc1ccccc1OC)N1CCCc2ccccc21 | inconclusive: 6.57 µM [inhibitor, partial curve, poor fit]
43 | O=c1[nH]c2cc3c(cc2cc1CN(CCc1ccccc1)Cc1nnnn1C1CCCC1)OCCO3 | inactive
44 | COc1ccc(-c2nc3c(n2O)CCC/C3=N\O)cc1 | inactive

Filtered by structure: those above containing fluorine (4)
Row | Compound | Potency
3 | CC(C)[C@H](NC(=O)OCc1ccccc1)C(=O)OCC(=O)Nc1c(F)cccc1F | inactive
5 | O=C(Cc1c(F)cccc1Cl)N1CCN(S(=O)(=O)c2cccs2)CC1 | inactive
7 | Oc1cccc(Oc2ncc(C(F)(F)F)cc2Cl)c1 | inactive
27 | Cc1ccc(O)c(C(=O)c2cnc3c(c2)c(-c2ccc(F)cc2)c(C#N)c(=O)n3C)c1 | inconclusive: 1.85 µM [inhibitor, partial curve, poor fit]

Next part:

Row | Compound | Potency
45 | CNC(=O)c1cccn(Cc2cccc(C(F)(F)F)c2)c1=O | inactive
46 | C=CCn1c(SCC(=O)c2cc(C)n(Cc3cccs3)c2C)nnc1-c1ccncc1 | inactive
47 | CCc1ccc[n+](-c2nc([O-])sc2C=O)c1 | inactive
48 | CC(=O)c1ccc(N2CCN(C(=O)CCS(=O)(=O)c3ccc4c(c3)CCN4C(C)=O)CC2)cc1 | inconclusive: 6.57 µM [inhibitor, partial curve, poor fit]
49 | Cc1cc(C(=O)OC(C(=O)Nc2ccc(C)c(Cl)c2)c2ccccc2)c(C)o1 (stereo unspecified) | inconclusive: 10.4 µM [inhibitor, single point]
50 | COc1ccc(/C=N/N2CCN(c3ccccc3)CC2)cc1Br | inconclusive: 18.5 µM [inhibitor, single point]
51 | Cc1cc(OCC(=O)N(C)Cc2ccccc2)ccc1Br | inconclusive: 14.7 µM [inhibitor, single point]
52 | CC(C)CCNC(=O)C12CN(Cc3ccccc3)CC1C(c1ccc([N+](=O)[O-])cc1)=NO2 (stereo unspecified) | inconclusive: 11.7 µM [inhibitor, partial curve, poor fit]
53 | O=C(COc1ccccc1)N1c2ccccc2Sc2ccccc21 | inconclusive: 13.1 µM [inhibitor, single point]
54 | Cn1c(N)c(C(=O)COC(=O)/C=C/c2ccc(F)cc2)c(=O)n(C)c1=O | inconclusive: 4.15 µM [inhibitor, partial curve, poor fit]
55 | CCOC(=O)N1CCN(C(=O)C2CCCN(c3ncnc4c3nc3n4CCCCC3)C2)CC1 (stereo unspecified) | inconclusive: 0.0657 µM [inhibitor, full curve, poor fit]
56 | Cc1ccc(S(=O)(=O)c2nc(-c3ccccc3Cl)oc2N(C)C)cc1 | inconclusive: 18.5 µM [inhibitor, single point]
57 | N#Cc1ccc(-c2nc3ccccc3c(=O)n2O)cc1 | inconclusive: 8.28 µM [inhibitor, partial curve]
58 | CN(C(=O)c1ccccc1)C1c2c(ccc3ccccc23)OCC1CO (stereo unspecified) | inactive
59 | Cc1onc(-c2c(F)cccc2Cl)c1C(=O)OCC(=O)NC(=O)NCC(C)C | inconclusive: 6.57 µM [inhibitor, partial curve, poor fit]
60 | CCS(=O)(=O)N1Cc2ccccc2CC1C(=O)Nc1cc(S(C)(=O)=O)ccc1Cl (stereo unspecified) | inconclusive: 13.1 µM [inhibitor, single point]
61 | Cc1ccccc1OCC(O)CNC1CCCC1 (stereo unspecified) | inconclusive: 18.5 µM [inhibitor, single point]
62 | O=C(COc1ccc(Cl)cc1Cl)Nc1ccc(S(=O)(=O)NC2=NCCCCC2)cc1 | inconclusive: 11.7 µM [inhibitor, single point]
63 | COc1cc(C=O)ccc1OCCOCCOc1ccccc1Cl | inconclusive: 0.586 µM [inhibitor, partial curve, poor fit]
64 | COC(=O)C1=C(c2ccccc2OCc2ccccc2)C[C@@H]2CC[C@H]1N2C(=O)NCc1ccc([N+](=O)[O-])cc1 | inconclusive: 0.0522 µM [inhibitor, full curve, poor fit]
65 | CCOC(=O)C1(Cc2cccc(OC)c2)CCN(Cc2ccccc2)CC1 | inconclusive: 1.31 µM [inhibitor, partial curve, poor fit]
66 | Cc1ccc(N2C(=O)C3C4C=CC(CNC(=S)Nc5ccc(Cl)cc5)(O4)C3C2=O)cc1 (stereo unspecified) | inconclusive: 9.28 µM [inhibitor, single point]
